Results taken from PubChem BioAssay AID2685 (National Center for Advancing Translational Sciences (NCATS), 2010).
Some of the results follow. Shown are side measurements of this screen, not its main read-out; they come without a call. Compounds called inactive in the main read-out are mostly missing here. The note in brackets gives the kind of curve behind each potency; many fits are weak.

Test: qHTS Assay for Lipid Storage Modulators in Drosophila S3 Cells;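 as to cell number change: cells counted by Cell Tracker Red CMTPX staining in the red channel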
Settings: BODIPY lipid droplet fluorescence, 18-24 h; for cell number change: measured here: cell count max response, cells fed with added oleic acid
Outline: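 Drosophila S3 cells got compounds at several concentrations plus oleic acid (400 uM solution). Laser-scanning cytometry with 488 nm excitation read lipid droplets at 500-530 nm and cells at 575-640 nm. Percent activity was relative to 20 uM Triacsin C.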

[1] = measured here: lipid fluorescence (Fed channel) AC50, cells fed with added oleic acid
[2] = measured here: cell number channel AC50, cells fed with added oleic acid

With Cc1ccccc1NC(=O)CCC(=O)OCC(=O)c1ccc(-c2ccccc2)cc1 the cell number change was -18.8% and the AC50 [1] was 10.3 µM [falling, partial curve].
In the case of COC(=O)c1cc2n(n1)CCN(Cc1ccccc1Cl)C2=O, the cell number change is reported as -0.938%, the AC50 [2] is reported as 0.00461 µM [falling, full curve, poor fit] and the AC50 [1] is reported as 16.4 µM [falling, single point].
In the case of Cc1cc(C(=O)N/N=C/c2ccc(-c3cccc([N+](=O)[O-])c3)o2)n[nH]1, the cell number change is reported as 18.5% and the AC50 [1] is reported as 29.1 µM [falling, single point].
With O=C(O)c1ccc(Nc2ncnc3scc(-c4ccccc4)c23)cc1 the cell number change was 0.241% and the AC50 [1] was 0.00461 µM [falling, full curve, poor fit].
In the case of COc1ccc(O)c(C(=O)c2cnc3c(c2)c(C)nn3C)c1, the cell number change is reported as 25.4% and the AC50 [1] is reported as 29.1 µM [rising, partial curve].
For CC1CC(C)(C)NC(=S)N1CCC(=O)NCc1ccc(F)cc1 (stereo not drawn), the cell number change was -63.6% and the AC50 [2] was 5.17 µM [falling, partial curve, poor fit].
In the case of NS(=O)(=O)c1ccc(CNc2nc(-c3cccnc3)nc3ccccc23)cc1, the cell number change is reported as -18.4% and the AC50 [1] is reported as 5.62 µM [falling, single point].
For Cc1ccc(NC(=O)CSc2nccn2Cc2ccco2)c(C)c1, the cell number change was 26.4% and the AC50 [1] was 0.562 µM [rising, single point].
In the case of CCOCCc1c(O)nc(SC)[nH]c1=O, the cell number change is reported as -52.6%, the AC50 [2] is reported as 29.1 µM [falling, single point] and the AC50 [1] is reported as 29.1 µM [falling, single point].
For Clc1cccc(Cl)c1C1Nc2cccc3cccc(c23)N1, the cell number change was -59.3% and the AC50 [2] was 1.46 µM [falling, full curve].
For Cc1cccc(-n2nnc(C(=O)NCc3ccco3)c2N)c1, the cell number change was 19.3% and the AC50 [1] was 29.1 µM [rising, single point].
For CCOC(=O)c1[nH]cnc1C(=O)N1CCC(C)CC1, the cell number change was 1.47% and the AC50 [1] was 0.00461 µM [rising, full curve, poor fit].
For CC1CCC2(CC1)NC(=O)N(NC(=O)CCc1c[nH]c3ccccc13)C2=O (stereo not drawn), the AC50 [1] was 29.1 µM [falling, single point].
In the case of CCCCOC(=O)C1=C(N)N2C(=O)C(C)SC2=C(C(=O)OCC)C1c1ccc(O)c(OC)c1 (stereo not drawn), the cell number change is reported as 4.38% and the AC50 [1] is reported as 0.731 µM [rising, full curve, poor fit].
For COc1ccc(-c2sc(C(=O)c3ccc(Cl)cc3Cl)cc2CC(=O)O)cc1, the cell number change was 73.9%, the AC50 [2] was 29.1 µM [rising, single point] and the AC50 [1] was 29.1 µM [rising, single point].
In the case of COc1ccc(N(CC(=O)N2CCN(C)CC2)S(C)(=O)=O)cc1OC, the cell number change is reported as -56.1%, the AC50 [2] is reported as 0.82 µM [falling, full curve] and the AC50 [1] is reported as 0.517 µM [falling, full curve].
For CCCCn1c(N)c(N(CCC(C)C)C(=O)c2cc(-c3ccco3)nc3ccccc23)c(=O)[nH]c1=O, the AC50 [1] was 0.58 µM [falling, full curve].
With Cc1ccc(-c2nnn(CC(=O)N(CCCO)C(C(=O)NC3CCCC3)c3ccc(F)cc3)n2)o1 (stereo not drawn) the cell number change was 1.32% and the AC50 [1] was 0.562 µM [falling, full curve, poor fit].
For CN(C)C(=O)CSc1nnc(-c2ccncc2)n1Cc1ccco1, the AC50 [1] was 6.51 µM [falling, single point].
For O=C(O)c1ccccc1SC1CC(=O)N(c2ccc3c(c2)OCO3)C1=O (stereo not drawn), the cell number change was 67.3% and the AC50 [2] was 18.4 µM [rising, single point].
With CCCCCCOC(=O)c1ccc(OC(=O)c2cccnc2)cc1 the cell number change was 20% and the AC50 [1] was 4.11 µM [falling, partial curve].
In the case of O=[N+]([O-])c1c(NCCCO)cc(Sc2nc3ccccc3s2)c2nonc12, the cell number change is reported as -27.6%.
S=C(Nc1ccc2nc(-c3ccccn3)c(-c3ccccn3)nc2c1)N1CCCCCC1 showed a cell number change of 12.2%.
For CC(C)C[C@@]12C(=O)N(c3cccc(Cl)c3)C(=O)N1[C@H](c1ccc(Br)cc1)[C@@H]1C(=O)N(C(C)(C)C)C(=O)[C@@H]12, the cell number change was 32.1% and the AC50 [2] was 14.6 µM [rising, single point].
Work on N#CCNC(=O)C1CC(=O)N(CCc2ccc(F)cc2)C1 (stereo not drawn) yielded a cell number change of 6.45%.
With N#CC1C=Cc2ccccc2N1C(=O)c1ccccc1 (stereo not drawn) the cell number change was 42.8% and the AC50 [1] was 13 µM [rising, partial curve].
With O=C(c1cc(C(=O)c2ccco2)cc(C(=O)c2ccco2)c1)c1ccco1 the cell number change was 17.4% and the AC50 [2] was 0.291 µM [rising, full curve, poor fit].
With COc1cc2c(=O)n(CC3CCCO3)c(=O)n(CC(=O)Nc3ccc(F)cc3F)c2cc1OC (stereo not drawn) the cell number change was 53.9%, the AC50 [2] was 16.4 µM [rising, partial curve] and the AC50 [1] was 9.2 µM [rising, partial curve, poor fit].
With CCN(CC)CCN(C(=O)c1ccc2c(c1)CCCC2)c1nc2c(C)cccc2s1 the cell number change was 38.2%, the AC50 [2] was 12.6 µM [rising, partial curve, poor fit] and the AC50 [1] was 10 µM [rising, partial curve, poor fit].
For O=C(NCC(=O)N1CCN(C(=O)c2ccco2)CC1)c1cccc(Cl)c1, the cell number change was 2.07% and the AC50 [1] was 13 µM [rising, partial curve, poor fit].
For CCOCC(O)CS(=O)(=O)c1ccccn1 (stereo not drawn), the cell number change was -13.9% and the AC50 [1] was 1.84 µM [falling, full curve].
In the case of O=C(Nc1nccs1)C1CC(=O)N(c2ccccc2Cl)C1 (stereo not drawn), the cell number change is reported as 52%, the AC50 [2] is reported as 6.51 µM [falling, single point] and the AC50 [1] is reported as 6.51 µM [falling, single point].
In the case of CC(=O)Nc1ccc(NC(=O)c2cccc(S(=O)(=O)N(C)C3CCCCC3)c2)cc1, the cell number change is reported as -6.16% and the AC50 [1] is reported as 0.146 µM [falling, partial curve, poor fit].
For Cc1ccc(-c2cc(C(=O)NC3CCCCC3)no2)cc1, the cell number change was 13.2%.
With Cc1ccccc1C(=O)NC(CC(C)C)C(=O)N1CCN(c2ccccc2)CC1 (stereo not drawn) the cell number change was -8.11% and the AC50 [1] was 0.13 µM [falling, full curve, poor fit].
With CCOc1ccc2oc(C(=O)N(C)CC(=O)Nc3ccc(OCC)c(OCC)c3)c(C)c2c1 the AC50 [1] was 0.259 µM [rising, full curve, poor fit].
O=C(NCc1ccc2c(c1)OCO2)C1CC(=O)N(CCc2ccccc2)C1 (stereo not drawn) gave a cell number change of 7.87%.
For C[C@@H]1NS(=O)(=O)[C@H]2C[C@@H]3C=C[C@]2(O3)[C@H]1OC(=O)c1ccccc1Br, the cell number change was 11.5% and the AC50 [1] was 0.82 µM [rising, full curve, poor fit].
With CC(=O)Nc1ccc(-c2nc3ccccc3c(=O)o2)cc1 the cell number change was 21.6% and the AC50 [2] was 6.51 µM [rising, single point].
For CC(C(=O)c1c[nH]c(C(N)=O)c1)c1ncc(C(F)(F)F)cc1Cl (stereo not drawn), the cell number change was 6.32% and the AC50 [1] was 0.00461 µM [falling, full curve].
With Cc1c(Cc2ccccc2)c(=O)oc2c(O)c(O)ccc12 the cell number change was -32.5%, the AC50 [2] was 1.03 µM [falling, full curve, poor fit] and the AC50 [1] was 3.26 µM [falling, full curve].
COc1cc(/C=N\n2cnnc2)ccc1OCC(=O)Nc1ccc(C)cc1 showed a cell number change of -34.5%.
With CCO/C=N/c1c(C#N)c2c(c(=S)n1C)COC(C)(C)C2 the cell number change was -0.676% and the AC50 [1] was 11.6 µM [falling, partial curve].
For CC(C)(C)NC(=O)NC(=O)COC(=O)CNS(=O)(=O)c1ccc(Br)cc1Cl, the cell number change was 0.88% and the AC50 [1] was 16.4 µM [falling, partial curve].
For CCOc1ccc(N(CC(=O)N/N=C/c2ccccn2)S(=O)(=O)c2ccc(Cl)cc2)cc1, the cell number change was -25.2% and the AC50 [1] was 29.1 µM [falling, single point].
Work on Cc1cc(NC(=O)CCN2CCC(C(N)=O)CC2)ccc1Br yielded a cell number change of 35.5%.
In the case of Cc1nn(C)c(C)c1CN(C)C(=O)c1nn2c(c1Br)NC(c1cccs1)CC2C(F)(F)F (stereo not drawn), the cell number change is reported as -0.431% and the AC50 [1] is reported as 3.66 µM [rising, full curve].
For O=C(Nc1cc(C(F)(F)F)ccc1N1CCOCC1)c1ccco1, the AC50 [1] was 4.61 µM [rising, single point].
In the case of Cc1oc2c(cc(NS(=O)(=O)c3cccs3)c3ccccc32)c1C(=O)OC(C)C, the cell number change is reported as -27.3% and the AC50 [1] is reported as 23.1 µM [falling, partial curve, poor fit].
With CCOC(=O)C(=Cc1ccc(Br)cc1)C(=O)OCC the cell number change was -62.3%, the AC50 [2] was 18.4 µM [falling, single point] and the AC50 [1] was 20.6 µM [falling, single point].
In the case of CCOC(=O)C1=C(C)NC(SCC(=O)OC)=C(C#N)C1c1ccc(C(=O)OC)cc1 (stereo not drawn), the cell number change is reported as -9.19% and the AC50 [1] is reported as 10.3 µM [falling, partial curve, poor fit].
In the case of CC(NC(=O)CCNC(=O)c1ccco1)c1ccc(F)cc1 (stereo not drawn), the cell number change is reported as 13.5%.
For COc1ccccc1C(=O)CSc1ccccn1, the cell number change was 16.3% and the AC50 [1] was 8.91 µM [rising, partial curve, poor fit].
COc1ccc(C)cc1S(=O)(=O)N(CC(=O)Nc1cccc([N+](=O)[O-])c1)c1ccccc1 showed a cell number change of 3.8%.
In the case of Cc1ccc(NC(=O)C(c2ccccc2)N2CCN(CC(=O)NC3CC3)CC2)cc1Cl (stereo not drawn), the cell number change is reported as 8.96% and the AC50 [1] is reported as 0.82 µM [rising, full curve, poor fit].
In the case of COc1ccccc1OCC(=O)Nc1cc(Cl)ccc1N1CCCCC1, the cell number change is reported as 21.1%, the AC50 [2] is reported as 0.259 µM [rising, full curve, poor fit] and the AC50 [1] is reported as 0.366 µM [rising, partial curve].
For Cc1ccccc1CN1CCN(S(=O)(=O)c2cccs2)CC1, the cell number change was 6.8% and the AC50 [2] was 2.91 µM [rising, single point].
For Cc1nn(C(C)C(=O)NCC2CCCO2)c(=O)c2cc3occc3n12 (stereo not drawn), the cell number change was -44.4% and the AC50 [2] was 1.16 µM [falling, full curve, poor fit].
In the case of COc1ccc(N=C2SC(CC(=O)Nc3ccccc3)C(=O)N2CC2CCCO2)cc1 (stereo not drawn), the AC50 [2] is reported as 0.291 µM [rising, full curve].
